# Experimental data taken from PubChem BioAssay AID493014 (National Center for Advancing Translational Sciences (NCATS), 2011).
# Hit rate of the full screen: of about 340,000 compounds, about 170 (0.05%) were called active. Inconclusive results, whose numbers are uncertain, are shown with a selection of clear calls. Calls come from the whole dose curve; as a rule, active = well fitted inhibition curve with a large enough effect in the signal ratio, with a control signal flat (not every such curve was filed as active); inconclusive = small, poorly fitted or top-dose-only effect, or effect the other way, or a change in a side signal; inactive = flat fitted curve, though single readings scatter; the % refers to the signal ratio. A potency beside an inconclusive call is a rough fit, not a confirmed value.
# Experiment: qHTS Assay to Find Inhibitors of Chronic Active B-Cell Receptor Signaling;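 for activity change, negative = inhibition: plate controls were basal doxycycline-induced cells for no effect and cells given 10 µM MG132 for full effect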
# Conditions: ABC-DLBCL IkBa-CBG/CBR reporter, luminescence ratio (green luciferase fused to IkBa over red control in TMD8 lymphoma cells), 4 h; activity change, negative = inhibition: at 46.1 µM (top of the series)
# How it was run: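 Concentration-response series (up to 46 uM) were applied to TMD8 dual-reporter cells for 4 h at 37C with doxycycline. Green/red ratio, after filter-overlap correction, defined %Activity; red signal alone was normalised to basal cells and zero luminescence.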
# Potency is the fitted concentration of half-maximal effect.
SMILES,"activity change, negative = inhibition",Potency
CCC(C)NC(=O)C1CCN(S(=O)(=O)c2cccnc2)CC1 (stereo unspecified),inconclusive: -24%,–
CCCn1nnc(NC(=O)c2ccc(Br)cc2)n1,inconclusive: -16.7%,–
CN(Cc1ccccc1)Cc1nc2c(c(=O)n(C)c(=O)n2C)n1Cc1ccc(F)cc1,inconclusive: 6.72%,–
COc1cnc(-c2ccccc2)nc1Oc1cccc(C)c1C,inconclusive: 12.4%,–
CC1(C#CC[N+]2(C)CCCCC2)CCC2C(O1)c1ccccc1OC2(C)C (stereo unspecified),inconclusive: 1.25%,–
Cc1ccc(C2=CC(c3ccc(N(C)C)cc3)n3nnnc3N2)cc1 (stereo unspecified),inactive: 0.772%,–
CCN1CCN(C(=O)Cn2ncc3c([nH]c4ccccc43)c2=O)CC1,inconclusive: 2.12%,–
O=C(NCCC1CCCCN1S(=O)(=O)c1ccccc1)C(=O)Nc1ccc(F)cc1 (stereo unspecified),–,"inconclusive: 18.4 µM [falling, partial curve]"
COc1ccc(-c2cc(C)nc(SCc3cccc(C(=O)O)c3)n2)cc1,inconclusive: 6.98%,–
O=C(Nc1ccc(CN2CCOCC2)cc1)c1ccc(-c2ccc(Cl)cc2Cl)o1,–,"inconclusive: 22.4 µM [falling, single point]"
COc1ccc(CCN(C)C(=O)C(CCSC)NC(=O)c2ccco2)cc1OC (stereo unspecified),inconclusive: -3.17%,–
CCOc1ccc(N(CC(=O)O)S(=O)(=O)c2cccnc2)cc1,–,"inconclusive: 0.731 µM [falling, full curve, poor fit]"
O=C(CNCCc1ccc(Cl)cc1)Nc1ccc(C(=O)N2CCCCC2)cc1,–,"inconclusive: 35.5 µM [falling, single point]"
Cc1nn(C)cc1C(=O)NNC(=S)Nc1ccccc1,–,"inconclusive: 35.5 µM [rising, single point]"
CC(O/N=C/c1ccccc1OC(F)F)C(=O)Nc1cccc(S(=O)(=O)N2CCOCC2)c1 (stereo unspecified),inconclusive: -0.711%,–
O=C(CC1SC(=NCc2ccccc2)NC1=O)Nc1ccccc1 (stereo unspecified),inconclusive: -2.72%,–
Clc1ccc(Oc2ncnc3oc(-c4ccccc4)cc23)cc1,inactive: -1.31%,–
CCCCN(CCCC)CC(O)CN(c1cc([N+](=O)[O-])ccc1OC)S(=O)(=O)c1ccccc1 (stereo unspecified),inconclusive: -16.5%,–
CCOC(=O)C1=CN(Cc2cccc(F)c2)S(=O)(=O)N(CC)C1c1ccccc1 (stereo unspecified),inactive: -8.31%,–
CN(C)c1nc(C(=O)NN)nc(N(C)C)n1,inconclusive: 1.75%,–
CC(C)c1c(C(=O)N/N=C/c2ccsc2)nnn1-c1nonc1N,inconclusive: 17.2%,–

# An excerpt from further up:
SMILES,"activity change, negative = inhibition",Potency
CC1(C#CC[N+]2(C)CCCCC2)CCC2C(O1)c1ccccc1OC2(C)C (stereo unspecified),inconclusive: 1.25%,–
Cc1ccc(C2=CC(c3ccc(N(C)C)cc3)n3nnnc3N2)cc1 (stereo unspecified),inactive: 0.772%,–
CCN1CCN(C(=O)Cn2ncc3c([nH]c4ccccc43)c2=O)CC1,inconclusive: 2.12%,–
O=C(NCCC1CCCCN1S(=O)(=O)c1ccccc1)C(=O)Nc1ccc(F)cc1 (stereo unspecified),–,"inconclusive: 18.4 µM [falling, partial curve]"

# Further results.

SMILES,"activity change, negative = inhibition",Potency
COc1ccccc1-n1cc(-c2ccc(Cl)cc2)[nH]c1=O,inactive: -19.4%,–
CCCn1nnc(NC(=O)c2cc(Br)cc(Br)c2OC)n1,inconclusive: 2.45%,–
O=C(O)Cc1ccc(C(=O)c2ccc(Cl)cc2)s1,–,"inconclusive: 16.4 µM [rising, single point]"
C=CCn1c(CSCc2ccccc2)nnc1SCC(=O)N1CCN(c2ccccc2)CC1,–,"inconclusive: 8.2 µM [rising, partial curve, poor fit]"
COc1cccc(NC(=O)CN(c2ccc(C)cc2)S(=O)(=O)c2c(C)nn(C)c2C)c1,inconclusive: 0.752%,–
O=C(CN1CCc2cc3c(cc2C1)OCCCO3)Nc1ccc(F)cc1,–,"inconclusive: 22.4 µM [falling, partial curve, poor fit]"
CCCCn1c(SCC(=O)Nc2cc(C(F)(F)F)ccc2Cl)nnc1C(CC)N(C)C (stereo unspecified),inconclusive: -10.4%,–
CCOc1cc(Br)c(C(=O)O)cc1OC,inconclusive: 8.27%,–
S=c1nccc(-c2ccc3c(c2)CCO3)[nH]1,inconclusive: 4.29%,–
Cc1ccnc(SCC(=O)N2CCc3ccccc32)n1,inactive: 2.04%,–
CC(C)CC(NC(=O)CCC(=O)OCC(=O)[C@@]1(O)CCC2[C@@H]3CCC4=CC(=O)C=C[C@]4(C)C3[C@@H](O)C[C@@]21C)C(=O)O (stereo partly specified),inconclusive: -10.2%,–
CCC(=O)N(C)CCc1cc2c(c(OC)c1/C=N/Nc1ccc(C(=O)O)cc1)OCO2,–,"inconclusive: 31.6 µM [rising, single point]"
Clc1ccc(-n2cc(-c3ccc(Br)cc3)[n+]3c2CCCCC3)cc1,inactive: -27.3%,–
Cc1cc(=O)[nH]c2c3ccccc3nn12,inconclusive: -0.0368%,–
O=C(Nc1ccc(N2CCN(Cc3ccccc3)CC2)cc1)c1ccco1,inconclusive: 2.26%,–
Cc1c(C2(O)CCCCC2)[nH]c2cnccc12,inconclusive: -0.473%,–
O=C(Nc1ccncc1)c1cccc(S(=O)(=O)N2CCc3ccccc32)c1,inactive: -0.816%,–
O=C(c1sc2ccccc2c1Cl)N1CCN(CCc2ccccn2)CC1,inconclusive: 8.23%,–
c1ccc(-c2cc(NCCN3CCCCC3)c3ccccc3n2)cc1,–,"inconclusive: 28.2 µM [falling, single point]"
Cn1c(=O)oc2cc(S(=O)(=O)N3CCC(C(=O)Nc4ccc(OC(F)(F)F)cc4)CC3)ccc21,inconclusive: 3.7%,–
Cc1ccc(C(=O)COC(=O)c2cccc(N3C(=O)c4c(C)nc5ccccc5c4C3=O)c2)cc1C,–,"inconclusive: 3.98 µM [falling, full curve, poor fit]"

SMILES,"activity change, negative = inhibition",Potency
COc1cccc(C(=O)Nc2cc(Cl)c(O)c(Cl)c2)c1,inconclusive: -9.8%,–
Cc1ccc(-n2c(-c3nn(C)cc3Cl)n[nH]c2=S)cc1,inconclusive: 0.206%,–
Cc1ccc([N+](=O)[O-])c(OCCN2CCc3ccccc3C2)c1,inactive: -0.277%,–
COc1ccc(/C=c2\s/c(=C/C(=O)c3ccc(C)cc3)[nH]c2=O)c(OC)c1,inconclusive: 2.85%,–
Cc1ccccc1NC(=O)CSc1nc(N)c2c3c(sc2n1)CSC(C)(C)C3,inconclusive: -2.89%,–
COc1ccc(N2CCc3c(C)nc4c(OC)cc(OC)cc4c32)c(OC)c1,inactive: -0.469%,–
COc1ccccc1OCCOC(=O)Nc1ccccc1,–,"inconclusive: 18.4 µM [falling, partial curve]"
Oc1ccc(Nc2nc(-c3ccccc3)nc3ccccc23)cc1,inconclusive: -7.32%,–
O=C(CCCc1ccccc1)Nc1ccccc1C(F)(F)F,inconclusive: -2.29%,–
COc1ccccc1-n1cnc2cc(NCc3ccccc3O)ccc21,–,"inconclusive: 11.2 µM [falling, partial curve, poor fit]"
CN(C)CC1CCCCC1OC(=O)/C=C/c1ccc(Cl)cc1Cl (stereo unspecified),–,"inconclusive: 35.5 µM [falling, single point]"
c1ccc2c3c([nH]c2c1)C(C1CCCCC1)N(Cc1ncc[nH]1)CC3 (stereo unspecified),inconclusive: -14.5%,–
COC(=O)CN1C(=O)C(O)(CC(=O)c2ccc(C)cc2)c2cc(Br)ccc21 (stereo unspecified),inactive: 5.48%,–
Cn1c2ccccc2c2cc(/C=N/NC(=O)c3cc(O)ccc3O)ccc21,–,"inconclusive: 3.98 µM [falling, full curve]"
Cn1c(SCC(=O)N2CCCCCC2)nnc1-c1ccco1,inconclusive: 6.25%,–
Cc1ccc(C(=O)NC(C(=O)Nc2ccccc2)c2ccccc2)cc1 (stereo unspecified),inconclusive: 8.59%,–
CS(=O)(=O)c1nc(-c2cccs2)cc(C(F)(F)F)n1,inconclusive: 16.8%,–
Cc1ccccc1NC(=O)CN1C(=S)NC(C)(C)CC1C (stereo unspecified),inactive: 3.88%,–
CC(C)(C)c1ccc(S(=O)(=O)Nc2noc3ccccc23)cc1,inconclusive: -0.597%,–
CCOC(=O)c1c(COC(=O)c2ccco2)nc2ccccc2[n+]1[O-],inconclusive: 4.72%,–
O=C(NCc1nc(-c2ccc(C(F)(F)F)cc2)no1)Nc1cc(Cl)cc(Cl)c1,inactive: 2.49%,–

SMILES,"activity change, negative = inhibition",Potency
O=C(N/N=C/c1c(Cl)[nH]c2ccccc12)c1ccc2c(c1)OCCO2,–,"inconclusive: 11.2 µM [falling, partial curve]"
COc1cc(OC)cc(C(=O)N[C@H](C(=O)Nc2nnc(C3CC3)s2)C(C)C)c1,inconclusive: 2.49%,–
C=CCN(c1ccccc1)S(=O)(=O)c1cccc(C(=O)Nc2ncccc2O)c1,inconclusive: 15.5%,–
NC(=O)CN1CCN(c2nc(-c3ccc(F)cc3)cs2)CC1,inconclusive: 0.394%,–
COc1cc(/C=N/NC(=O)c2ccccc2O)ccc1OCC(=O)Nc1ccccc1,–,"inconclusive: 17.8 µM [falling, partial curve]"
COc1ccc(/C=C/C(=O)OCc2csc(-c3ccccc3)n2)cc1OC,inconclusive: 15.4%,–
CS(=O)(=O)c1ccc(-c2nnc(NC(=O)C3=COCCO3)o2)cc1,inconclusive: -14.6%,–
CCOc1ccc2c(c1)sc(N)[n+]2Cc1cc(C)cc2cccnc12,inconclusive: -25.3%,–
COc1ccc(C(C(=O)NC(C)(C)C)N(CCc2ccccc2)C(=O)CCC(=O)Nc2cc(C)on2)cc1 (stereo unspecified),inactive: 9.97%,–
CCOC(=O)CNC(=O)CSc1nc2cccnc2n1Cc1ccccc1,inconclusive: -3.72%,–
O=C(CSc1nc(-c2ccccc2)c(-c2ccccc2)[nH]1)NCC1CCCO1 (stereo unspecified),inconclusive: -7.21%,–
CC(C)Cc1cc(C(=O)Nc2cc(Br)ccc2O)no1,–,"inconclusive: 0.58 µM [rising, full curve, poor fit]"
COc1ccc(NC(=O)COC(=O)c2ccc3ccccc3n2)c(OC)c1,inconclusive: -0.537%,–
CN(C)CCn1c(=N)n(CC(O)c2ccc(Cl)c(Cl)c2)c2ccccc21 (stereo unspecified),inconclusive: -13.1%,–
C[C@H](NC(=O)c1ccco1)C(=O)NC1CCCCCC1,inactive: -0.196%,–
COc1ccc(C(=O)NCC(c2cccnc2)N2CCN(c3ccccc3OC)CC2)cc1OC (stereo unspecified),inactive: -2.45%,–
O=C(Nc1cccs1)Nc1ccccc1Cl,–,"inconclusive: 29.1 µM [falling, single point]"
Cc1nn(-c2ccccc2)c(N2CCCC2)c1/C=N/NC(=S)Nc1ccccc1F,–,"inconclusive: 29.1 µM [falling, single point]"
